Assay results taken from patent US20060002960A1 (priority 2003, published 2006).
For some of these results: At least one structure is not confirmed: it was looked up by name or label, or the drawing left a doubt. Some entries share one result that the patent states for a list of compounds.

How the values were obtained:
LT or CT = details: cited from earlier work
mice = details: mouse, in vivo

Row | Compound | IC50 (LT or CT) | further results
1 | O=C[C@H](O)[C@@H](O)[C@@H](O)[C@H](O)CO [D-galactose] | 45 to 60 mM | –
2 | CC(=O)N[C@H]1[C@H](O[C@@H]2[C@H](O[C@]3(C(=O)O)C[C@H](O)[C@@H](NC(C)=O)[C@H]([C@H](O)[C@H](O)CO)O3)[C@@H](O)[C@H](O[C@H]3[C@H](O)[C@@H](O)[C@H](O)O[C@@H]3CO)O[C@@H]2CO)O[C@H](CO)[C@H](O)[C@@H]1O[C@@H]1O[C@H](CO)[C@H](O)[C@H](O)[C@H]1O [OS-GM1, Gal-β1,3-GalNAc-β1,4-(NeuAc-α2,3)-Gal-β1,4-Glc-β1] | – | Kd (LT or CT): 6-7×10^−9 M to 1×10^−10
3 | OC[C@H]1O[C@@H](O[C@H]2[C@H](O)[C@@H](O)C(O)O[C@@H]2CO)[C@H](O)[C@@H](O)[C@H]1O (stereo partly shown) [lactose] | 45 to 60 mM | –
4 | Escherichia coli heat-labile enterotoxin [LT] | – | fold increase in antibody titers (mice): 9 to 16 fold
